The target in one assay is T1, hFSHR-Rluc8 (human) (UniProt P23945).
T1 sequence: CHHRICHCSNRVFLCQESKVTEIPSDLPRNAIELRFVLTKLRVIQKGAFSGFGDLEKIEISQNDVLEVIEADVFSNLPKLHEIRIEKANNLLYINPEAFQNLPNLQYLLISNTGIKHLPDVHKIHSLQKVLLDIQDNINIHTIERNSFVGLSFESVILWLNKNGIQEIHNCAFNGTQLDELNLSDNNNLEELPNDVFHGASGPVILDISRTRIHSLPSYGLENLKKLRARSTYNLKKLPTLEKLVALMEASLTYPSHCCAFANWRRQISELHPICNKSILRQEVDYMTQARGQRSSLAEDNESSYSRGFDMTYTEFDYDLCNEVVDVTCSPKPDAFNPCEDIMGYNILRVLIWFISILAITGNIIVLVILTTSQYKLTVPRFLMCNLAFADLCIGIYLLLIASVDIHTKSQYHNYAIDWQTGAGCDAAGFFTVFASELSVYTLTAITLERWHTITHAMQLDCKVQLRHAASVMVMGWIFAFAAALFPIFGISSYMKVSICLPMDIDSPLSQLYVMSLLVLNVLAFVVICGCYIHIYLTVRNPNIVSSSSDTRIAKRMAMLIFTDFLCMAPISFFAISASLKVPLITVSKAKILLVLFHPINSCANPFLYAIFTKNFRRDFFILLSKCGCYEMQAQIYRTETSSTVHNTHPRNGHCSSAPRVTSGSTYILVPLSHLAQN
As to the kind of experiment: FRET or BRET; real-time BRET kinetics in live HEK 293 cells transiently co-expressing receptor-Rluc8 (donor) and yPET-β-arrestin 2 (acceptor); basal (vehicle) and after 10 nM hFSH or hCG; coelenterazine h 5 μM; PBS-HEPES 10 mM; 96-well format. For orientation: In BRET a luciferase serves as donor, and the signal depends on an acceptor being close.

Amino acid sequences for entries named in this document (tags omitted). Residues count along the entry.
UniProt P22888, residues 27-699: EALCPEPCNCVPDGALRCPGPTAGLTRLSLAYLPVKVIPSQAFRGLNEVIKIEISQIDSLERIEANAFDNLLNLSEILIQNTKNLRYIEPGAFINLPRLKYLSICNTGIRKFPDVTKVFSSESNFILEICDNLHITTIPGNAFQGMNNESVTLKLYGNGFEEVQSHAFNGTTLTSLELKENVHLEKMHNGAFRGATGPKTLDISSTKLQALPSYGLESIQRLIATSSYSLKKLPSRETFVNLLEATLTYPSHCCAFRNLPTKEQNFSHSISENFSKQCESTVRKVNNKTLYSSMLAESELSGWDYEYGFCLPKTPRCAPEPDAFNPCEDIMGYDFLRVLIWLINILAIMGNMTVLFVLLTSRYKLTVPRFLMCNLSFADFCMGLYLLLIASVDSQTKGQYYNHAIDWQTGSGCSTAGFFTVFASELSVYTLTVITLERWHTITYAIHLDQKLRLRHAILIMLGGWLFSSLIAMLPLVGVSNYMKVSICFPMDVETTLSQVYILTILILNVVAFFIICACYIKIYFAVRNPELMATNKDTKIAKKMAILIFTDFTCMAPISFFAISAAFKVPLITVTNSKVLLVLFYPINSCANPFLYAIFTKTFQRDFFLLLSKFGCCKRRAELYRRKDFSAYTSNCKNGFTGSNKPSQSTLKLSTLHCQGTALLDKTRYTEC
UniProt P32121: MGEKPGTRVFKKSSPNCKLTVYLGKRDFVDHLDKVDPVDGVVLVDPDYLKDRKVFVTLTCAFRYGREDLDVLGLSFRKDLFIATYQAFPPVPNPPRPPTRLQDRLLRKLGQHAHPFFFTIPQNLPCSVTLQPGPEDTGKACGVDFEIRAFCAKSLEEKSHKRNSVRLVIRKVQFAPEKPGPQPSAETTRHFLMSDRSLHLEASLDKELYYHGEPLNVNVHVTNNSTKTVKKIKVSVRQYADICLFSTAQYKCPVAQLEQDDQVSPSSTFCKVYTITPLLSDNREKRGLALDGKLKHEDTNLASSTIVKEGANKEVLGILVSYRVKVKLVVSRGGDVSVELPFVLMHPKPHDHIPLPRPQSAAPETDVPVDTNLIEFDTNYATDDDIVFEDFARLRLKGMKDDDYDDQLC

For the next assay, the target named is hLHR-Rluc8 (human) (UniProt P22888). The assay is described as above.

No constants are given. Whether binding was seen depends on the method and setting. In cells and extracts the contact can be indirect. Some results given as binding are weak or reduced against the parent protein; the word gives no strength. For some assays here: Where a sequence is shown, tags or fusion partners need not be part of it.

As to “yPET-β-arrestin 2 (from UniProt P32121 1-409)”, the binding entry with hFSHR-Rluc8 (human) and with hLHR-Rluc8 (human) was “binds” in each case.

Source of the values: paper PMC4550792.
